From publication PMC5682668
Results are given in words; binding and its absence hold for the method and conditions named. Binding seen in cells or lysates may run through a third protein. Some results given as binding are weak or reduced against the parent protein; the word gives no strength.

Amino acid sequences for entries named in this document (tags omitted).
UniProt P15307: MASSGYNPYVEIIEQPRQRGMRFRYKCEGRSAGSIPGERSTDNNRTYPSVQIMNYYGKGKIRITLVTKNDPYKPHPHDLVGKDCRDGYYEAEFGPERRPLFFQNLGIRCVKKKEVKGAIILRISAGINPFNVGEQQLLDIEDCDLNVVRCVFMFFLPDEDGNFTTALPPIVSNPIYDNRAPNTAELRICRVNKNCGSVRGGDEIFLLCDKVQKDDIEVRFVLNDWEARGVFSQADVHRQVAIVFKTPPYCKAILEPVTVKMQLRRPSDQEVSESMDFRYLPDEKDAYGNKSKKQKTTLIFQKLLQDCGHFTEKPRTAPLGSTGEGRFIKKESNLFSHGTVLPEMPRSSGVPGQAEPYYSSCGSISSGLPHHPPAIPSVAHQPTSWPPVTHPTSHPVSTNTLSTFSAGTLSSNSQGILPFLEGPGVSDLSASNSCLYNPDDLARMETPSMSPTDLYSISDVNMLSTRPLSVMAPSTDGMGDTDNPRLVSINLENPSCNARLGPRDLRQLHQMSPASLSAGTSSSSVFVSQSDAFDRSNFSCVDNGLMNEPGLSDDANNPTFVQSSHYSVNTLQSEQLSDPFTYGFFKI
UniProt Q04207: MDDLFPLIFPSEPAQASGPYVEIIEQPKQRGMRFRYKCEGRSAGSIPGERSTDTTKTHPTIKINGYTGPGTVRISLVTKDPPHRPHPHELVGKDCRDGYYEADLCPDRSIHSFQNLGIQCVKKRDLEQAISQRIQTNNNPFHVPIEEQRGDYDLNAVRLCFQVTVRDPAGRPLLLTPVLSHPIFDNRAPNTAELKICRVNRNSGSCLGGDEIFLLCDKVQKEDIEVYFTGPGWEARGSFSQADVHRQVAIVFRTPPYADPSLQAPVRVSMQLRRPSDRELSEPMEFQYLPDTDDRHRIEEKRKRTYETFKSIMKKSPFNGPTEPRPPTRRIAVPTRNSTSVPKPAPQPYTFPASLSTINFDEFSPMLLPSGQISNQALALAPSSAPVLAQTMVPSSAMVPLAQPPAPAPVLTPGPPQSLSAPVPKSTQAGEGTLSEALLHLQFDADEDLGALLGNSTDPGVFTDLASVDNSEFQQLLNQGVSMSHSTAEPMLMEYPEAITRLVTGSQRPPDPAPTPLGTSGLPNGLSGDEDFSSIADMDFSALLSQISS

What was measured:
[1] = biological target: c-Rel (mouse (endogenous in C57BL/6 RPE–choroid complexes)) (UniProt P15307); assay: co-IP; endogenous proteins of mouse RPE–choroid complexes, 4 days after intravitreal injection of Aβ1-40 or PBS; Pierce Co-Immunoprecipitation Kit; precipitation with rabbit anti-RelA, anti-RelB/c-Rel or rabbit IgG, western blot with mouse antibodies
[2] = biological target: T1, RelB (mouse (endogenous in C57BL/6 RPE–choroid complexes)) (UniProt Q04863); assay: as above
T1 sequence: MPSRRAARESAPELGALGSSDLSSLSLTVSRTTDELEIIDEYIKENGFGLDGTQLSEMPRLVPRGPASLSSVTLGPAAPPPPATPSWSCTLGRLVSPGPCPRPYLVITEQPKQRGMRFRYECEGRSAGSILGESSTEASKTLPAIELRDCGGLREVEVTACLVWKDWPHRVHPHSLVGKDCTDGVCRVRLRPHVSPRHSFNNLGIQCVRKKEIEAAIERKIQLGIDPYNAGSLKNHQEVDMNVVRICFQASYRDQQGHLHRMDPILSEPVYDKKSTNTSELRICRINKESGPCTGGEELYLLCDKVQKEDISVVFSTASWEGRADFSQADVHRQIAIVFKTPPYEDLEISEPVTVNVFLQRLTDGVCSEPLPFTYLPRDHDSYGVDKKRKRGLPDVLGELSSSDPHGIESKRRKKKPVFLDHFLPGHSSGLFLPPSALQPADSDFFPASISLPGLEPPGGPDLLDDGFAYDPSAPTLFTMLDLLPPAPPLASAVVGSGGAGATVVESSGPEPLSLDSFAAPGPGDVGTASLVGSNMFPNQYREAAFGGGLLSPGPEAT

binding [1]: binds
binding [2]: binds
Substance: RelA (p65) (from UniProt Q04207 1-549)
